PubChem BioAssay AID1053209 | Peter MacCallum Cancer Centre – 2014

Purpose: 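Follow-up of single siRNAs that strengthen doxorubicin killing in osteosarcoma cells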 (follow-up of hits)
System: mouse primary osteosarcoma cells
Reagents: single siRNA against mouse genes, 25 nM (text also states 40 nM)
Duration: about 120 h (48 h before drug, then 72 h with drug)
Treatment: doxorubicin 100 nM (about IC30-40), added 48 h after transfection, for 72 h
Measurement: 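Viability measured by ATP luminescence with and without doxorubicin, each replicate scaled to non-targeting siRNA NT1, averaged over two replicates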
Scale: viability with doxorubicin, vs NT1: higher = more viable cells under doxorubicin; viability without drug, vs NT1: higher = more viable cells without drug
Call rule: 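Active when doxorubicin viability is at most 0.7 of NT1 and drug-free viability lies between 0.7 and 1.1, class LC dox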
The whole screen tested about 1,580 reagents; shown is a random part of them. In the full data, 207 (13%) were called active. 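Rows are single siRNAs; four siRNAs per gene were tested, a gene counting as confirmed only when at least two agree.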 Reagents against one gene are numbered here. Further read-outs or replicates are left out here.

| gene knocked down | reagent | combined effect class | viability with doxorubicin, vs NT1 | viability without drug, vs NT1 | Outcome |
| --- | --- | --- | --- | --- | --- |
| Isy1 (spliceosome associated protein) | 1 | low viability only with doxorubicin; normal without drug | 0.4 | 0.72 | active |
| Isy1 (spliceosome associated protein) | 2 | normal viability with and without drug | 0.97 | 0.99 | inactive |
| Isy1 (spliceosome associated protein) | 3 | low viability with and without drug | 0.32 | 0.54 | inactive |
| Isy1 (spliceosome associated protein) | 4 | normal viability with and without drug | 0.84 | 0.99 | inactive |
| Psmc4 (proteasome (prosome, macropain) 26S subunit, ATPase, 4) | 1 | low viability only without drug | 0.84 | 0.7 | inactive |
| Psmc4 (proteasome (prosome, macropain) 26S subunit, ATPase, 4) | 2 | low viability with and without drug | 0.36 | 0.41 | inactive |
| Psmc4 (proteasome (prosome, macropain) 26S subunit, ATPase, 4) | 3 | low viability with and without drug | 0.44 | 0.55 | inactive |
| Psmc4 (proteasome (prosome, macropain) 26S subunit, ATPase, 4) | 4 | low viability with and without drug | 0.22 | 0.5 | inactive |
| Son (Son DNA binding protein) | 1 | low viability with and without drug | 0.08 | 0.18 | inactive |
| Son (Son DNA binding protein) | 2 | low viability with and without drug | 0.17 | 0.29 | inactive |
| Son (Son DNA binding protein) | 3 | low viability with and without drug | 0.28 | 0.65 | inactive |
| Son (Son DNA binding protein) | 4 | low viability with and without drug | 0.18 | 0.57 | inactive |
| Pex11g (peroxisomal biogenesis factor 11 gamma) | 1 | normal viability with and without drug | 0.86 | 1.06 | inactive |
| Pex11g (peroxisomal biogenesis factor 11 gamma) | 2 | normal viability with and without drug | 0.92 | 0.96 | inactive |
| Pex11g (peroxisomal biogenesis factor 11 gamma) | 3 | normal viability with and without drug | 1.08 | 0.98 | inactive |
| Pex11g (peroxisomal biogenesis factor 11 gamma) | 4 | normal viability with and without drug | 0.96 | 0.9 | inactive |
| Itih1 (inter-alpha trypsin inhibitor, heavy chain 1) | 1 | normal viability with and without drug | 0.82 | 0.85 | inactive |
| Itih1 (inter-alpha trypsin inhibitor, heavy chain 1) | 2 | normal viability with and without drug | 0.99 | 1.06 | inactive |
| Itih1 (inter-alpha trypsin inhibitor, heavy chain 1) | 3 | low viability only with doxorubicin; normal without drug | 0.63 | 0.86 | active |
| Itih1 (inter-alpha trypsin inhibitor, heavy chain 1) | 4 | normal viability with and without drug | 0.98 | 1 | inactive |
| Ikzf5 (IKAROS family zinc finger 5) | 1 | normal viability with and without drug | 1.06 | 1 | inactive |
| Ikzf5 (IKAROS family zinc finger 5) | 2 | normal viability with and without drug | 0.9 | 1.02 | inactive |
| Ikzf5 (IKAROS family zinc finger 5) | 3 | normal viability with and without drug | 0.87 | 0.97 | inactive |
| Ikzf5 (IKAROS family zinc finger 5) | 4 | normal viability with and without drug | 1.04 | 1 | inactive |
| Prkar2b (protein kinase, cAMP dependent regulatory, type II beta) | 1 | high viability only with doxorubicin | 1.12 | 1.04 | inactive |
| Prkar2b (protein kinase, cAMP dependent regulatory, type II beta) | 2 | high viability only without drug | 1.04 | 1.12 | inactive |
| Prkar2b (protein kinase, cAMP dependent regulatory, type II beta) | 3 | normal viability with and without drug | 0.82 | 0.99 | inactive |
| Prkar2b (protein kinase, cAMP dependent regulatory, type II beta) | 4 | normal viability with and without drug | 0.93 | 0.9 | inactive |
| Tmco6 (transmembrane and coiled-coil domains 6) | 1 | normal viability with and without drug | 0.78 | 1 | inactive |
| Tmco6 (transmembrane and coiled-coil domains 6) | 2 | normal viability with and without drug | 0.98 | 1.06 | inactive |
| Tmco6 (transmembrane and coiled-coil domains 6) | 3 | high viability only without drug | 0.99 | 1.1 | inactive |
| Tmco6 (transmembrane and coiled-coil domains 6) | 4 | normal viability with and without drug | 0.89 | 0.94 | inactive |
| Pnck (pregnancy upregulated non-ubiquitously expressed CaM kinase) | 1 | normal viability with and without drug | 1 | 1.09 | inactive |
| Pnck (pregnancy upregulated non-ubiquitously expressed CaM kinase) | 2 | normal viability with and without drug | 0.94 | 1.02 | inactive |
| Pnck (pregnancy upregulated non-ubiquitously expressed CaM kinase) | 3 | normal viability with and without drug | 1.09 | 1.06 | inactive |
| Pnck (pregnancy upregulated non-ubiquitously expressed CaM kinase) | 4 | normal viability with and without drug | 0.98 | 1.02 | inactive |
| Prpf31 (pre-mRNA processing factor 31) | 1 | normal viability with and without drug | 0.76 | 0.82 | inactive |
| Prpf31 (pre-mRNA processing factor 31) | 2 | normal viability with and without drug | 1.05 | 0.9 | inactive |
| Prpf31 (pre-mRNA processing factor 31) | 3 | low viability only without drug | 0.94 | 0.66 | inactive |
| Prpf31 (pre-mRNA processing factor 31) | 4 | normal viability with and without drug | 0.89 | 0.93 | inactive |
